The data set relates to wild-type mice. The data set can be described thus: Wild-type mice treated with dynasore (organ pathology, coronary artery histology, TβR-II staining, plasma cholesterol). It counts as in vivo. As to conditions: dynasore 1 mg/kg every two days for 8 weeks, indirect immunofluorescent staining. The method, then: Wild-type and ApoE-null mice were treated with vehicle only (a, c) or 1 mg/kg dynasore (b, d) every two days for 8 weeks. The coronary arteries were removed from the animals and subjected to histological analysis by H & E staining (A) and indirect immunofluorescent staining for TβR-II(B). The asterisk (*) indicates the location of the lumen in coronary arteries. The arrow indicates the immunofluorescent staining of TβR-II in the aortic endothelium.
We hypothesize that TGF-β enhancers such as inhibitors of clathrin-dependent endocytosis may ameliorate atherosclerosis caused by cholesterol-induced suppression of TGF-β responsiveness in vascular cells^3,12. To test our hypothesis, we treated hypercholesterolemic ApoE-null mice with dynasore (1 mg/kg body weight) via intraperitoneal administration every two days for 8 weeks. We chose dynasore for two reasons. […] At 50 μM, it enhances TGF-β-stimulated expression of PAI-1 in these cell types by ˜4-5 fold, 2) Dynasore is the only inhibitor tested which alone is capable of stimulating PAI-1 expression. […] The plasma levels of cholesterol in wild-type mice treated with either vehicle only or dynasore were 120±10 and 125±20 mg/dl, respectively.
However, no TβR-II staining was found in the aortic endothelium and smooth muscle of coronary arteries in ApoE-null mice treated with vehicle only (FIG. 4Bc).

Turning to `O=C(N/N=C/c1ccc(O)c(O)c1)c1cc2ccccc2cc1O` [dynasore], the “TβR-II staining of coronary arteries” value is given as “staining was found in the aortic endothelium as well as in the smooth muscle of coronary arteries”.

The record behind these values is US8487006B2, “Method of enhancing TGF-β signalling” (Auxagen, Inc., priority 2008, dated 2013).
